Test results taken from article doi:10.1101/2025.06.16.659888.
Results are given in words; binding and its absence hold for the method and conditions named. In cells and extracts the contact can be indirect. Some entries that bind do so weakly or less than the wild type.

Protein sequences, listed by entry. Tags and fused reporters are not part of them. Lines headed by an entry give the natural chain unless they say otherwise; changes in a name come on top.
UniProt P28159: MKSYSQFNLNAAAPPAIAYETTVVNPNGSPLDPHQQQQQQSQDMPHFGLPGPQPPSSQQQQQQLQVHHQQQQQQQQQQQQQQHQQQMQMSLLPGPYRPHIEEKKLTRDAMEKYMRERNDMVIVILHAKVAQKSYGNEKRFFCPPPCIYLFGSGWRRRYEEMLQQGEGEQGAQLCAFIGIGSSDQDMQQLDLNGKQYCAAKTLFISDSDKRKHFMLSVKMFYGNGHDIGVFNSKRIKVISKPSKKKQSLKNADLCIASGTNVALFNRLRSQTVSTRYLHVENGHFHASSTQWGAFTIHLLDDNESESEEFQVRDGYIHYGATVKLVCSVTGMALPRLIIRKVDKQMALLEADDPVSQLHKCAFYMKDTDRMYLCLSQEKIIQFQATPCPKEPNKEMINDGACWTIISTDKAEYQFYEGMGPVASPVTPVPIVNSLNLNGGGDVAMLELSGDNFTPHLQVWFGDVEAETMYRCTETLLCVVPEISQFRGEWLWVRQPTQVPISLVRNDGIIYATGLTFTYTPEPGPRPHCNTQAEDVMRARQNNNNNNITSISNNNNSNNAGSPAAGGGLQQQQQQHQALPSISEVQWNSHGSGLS
UniProt P25439: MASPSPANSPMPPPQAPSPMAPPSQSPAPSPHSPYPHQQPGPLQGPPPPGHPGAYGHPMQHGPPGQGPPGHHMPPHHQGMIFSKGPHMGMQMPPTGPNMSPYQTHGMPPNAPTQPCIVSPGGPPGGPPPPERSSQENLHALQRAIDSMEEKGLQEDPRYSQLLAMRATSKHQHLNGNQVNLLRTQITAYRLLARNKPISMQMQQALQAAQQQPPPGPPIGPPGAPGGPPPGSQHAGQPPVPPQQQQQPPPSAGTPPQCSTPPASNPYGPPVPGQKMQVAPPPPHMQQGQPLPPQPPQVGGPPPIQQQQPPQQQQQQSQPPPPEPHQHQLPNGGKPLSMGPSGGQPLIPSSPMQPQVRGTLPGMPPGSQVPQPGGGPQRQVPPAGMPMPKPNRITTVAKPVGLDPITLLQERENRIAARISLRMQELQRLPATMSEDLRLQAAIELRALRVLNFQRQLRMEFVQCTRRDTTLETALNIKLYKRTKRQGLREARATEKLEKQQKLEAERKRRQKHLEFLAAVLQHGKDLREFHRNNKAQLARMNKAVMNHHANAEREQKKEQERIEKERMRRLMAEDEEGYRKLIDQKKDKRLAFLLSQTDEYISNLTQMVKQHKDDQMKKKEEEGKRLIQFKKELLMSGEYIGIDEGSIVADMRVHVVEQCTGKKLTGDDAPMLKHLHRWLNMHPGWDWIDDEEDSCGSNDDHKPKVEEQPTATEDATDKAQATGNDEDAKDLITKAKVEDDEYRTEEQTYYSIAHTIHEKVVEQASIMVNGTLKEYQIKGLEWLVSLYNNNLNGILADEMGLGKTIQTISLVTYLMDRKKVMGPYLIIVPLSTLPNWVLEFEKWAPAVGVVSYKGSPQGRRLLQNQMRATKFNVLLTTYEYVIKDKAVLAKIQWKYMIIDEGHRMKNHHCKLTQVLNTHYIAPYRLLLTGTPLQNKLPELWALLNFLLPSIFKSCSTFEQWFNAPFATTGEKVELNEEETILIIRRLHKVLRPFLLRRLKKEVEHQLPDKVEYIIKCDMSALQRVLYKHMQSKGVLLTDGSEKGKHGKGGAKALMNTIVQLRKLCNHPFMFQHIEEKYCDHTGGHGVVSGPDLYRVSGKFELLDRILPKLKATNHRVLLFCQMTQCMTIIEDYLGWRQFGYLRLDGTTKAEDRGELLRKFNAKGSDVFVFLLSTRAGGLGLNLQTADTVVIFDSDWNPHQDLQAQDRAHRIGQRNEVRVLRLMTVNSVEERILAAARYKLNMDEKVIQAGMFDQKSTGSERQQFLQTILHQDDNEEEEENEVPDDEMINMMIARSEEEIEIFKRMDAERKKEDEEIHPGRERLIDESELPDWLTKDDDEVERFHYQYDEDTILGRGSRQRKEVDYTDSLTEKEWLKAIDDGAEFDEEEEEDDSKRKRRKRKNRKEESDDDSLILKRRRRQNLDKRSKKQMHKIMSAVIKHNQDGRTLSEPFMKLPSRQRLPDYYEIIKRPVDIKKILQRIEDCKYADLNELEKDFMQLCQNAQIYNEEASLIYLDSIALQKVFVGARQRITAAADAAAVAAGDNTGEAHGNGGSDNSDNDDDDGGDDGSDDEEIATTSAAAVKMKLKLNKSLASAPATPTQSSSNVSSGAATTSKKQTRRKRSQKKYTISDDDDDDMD
UniProt P21519: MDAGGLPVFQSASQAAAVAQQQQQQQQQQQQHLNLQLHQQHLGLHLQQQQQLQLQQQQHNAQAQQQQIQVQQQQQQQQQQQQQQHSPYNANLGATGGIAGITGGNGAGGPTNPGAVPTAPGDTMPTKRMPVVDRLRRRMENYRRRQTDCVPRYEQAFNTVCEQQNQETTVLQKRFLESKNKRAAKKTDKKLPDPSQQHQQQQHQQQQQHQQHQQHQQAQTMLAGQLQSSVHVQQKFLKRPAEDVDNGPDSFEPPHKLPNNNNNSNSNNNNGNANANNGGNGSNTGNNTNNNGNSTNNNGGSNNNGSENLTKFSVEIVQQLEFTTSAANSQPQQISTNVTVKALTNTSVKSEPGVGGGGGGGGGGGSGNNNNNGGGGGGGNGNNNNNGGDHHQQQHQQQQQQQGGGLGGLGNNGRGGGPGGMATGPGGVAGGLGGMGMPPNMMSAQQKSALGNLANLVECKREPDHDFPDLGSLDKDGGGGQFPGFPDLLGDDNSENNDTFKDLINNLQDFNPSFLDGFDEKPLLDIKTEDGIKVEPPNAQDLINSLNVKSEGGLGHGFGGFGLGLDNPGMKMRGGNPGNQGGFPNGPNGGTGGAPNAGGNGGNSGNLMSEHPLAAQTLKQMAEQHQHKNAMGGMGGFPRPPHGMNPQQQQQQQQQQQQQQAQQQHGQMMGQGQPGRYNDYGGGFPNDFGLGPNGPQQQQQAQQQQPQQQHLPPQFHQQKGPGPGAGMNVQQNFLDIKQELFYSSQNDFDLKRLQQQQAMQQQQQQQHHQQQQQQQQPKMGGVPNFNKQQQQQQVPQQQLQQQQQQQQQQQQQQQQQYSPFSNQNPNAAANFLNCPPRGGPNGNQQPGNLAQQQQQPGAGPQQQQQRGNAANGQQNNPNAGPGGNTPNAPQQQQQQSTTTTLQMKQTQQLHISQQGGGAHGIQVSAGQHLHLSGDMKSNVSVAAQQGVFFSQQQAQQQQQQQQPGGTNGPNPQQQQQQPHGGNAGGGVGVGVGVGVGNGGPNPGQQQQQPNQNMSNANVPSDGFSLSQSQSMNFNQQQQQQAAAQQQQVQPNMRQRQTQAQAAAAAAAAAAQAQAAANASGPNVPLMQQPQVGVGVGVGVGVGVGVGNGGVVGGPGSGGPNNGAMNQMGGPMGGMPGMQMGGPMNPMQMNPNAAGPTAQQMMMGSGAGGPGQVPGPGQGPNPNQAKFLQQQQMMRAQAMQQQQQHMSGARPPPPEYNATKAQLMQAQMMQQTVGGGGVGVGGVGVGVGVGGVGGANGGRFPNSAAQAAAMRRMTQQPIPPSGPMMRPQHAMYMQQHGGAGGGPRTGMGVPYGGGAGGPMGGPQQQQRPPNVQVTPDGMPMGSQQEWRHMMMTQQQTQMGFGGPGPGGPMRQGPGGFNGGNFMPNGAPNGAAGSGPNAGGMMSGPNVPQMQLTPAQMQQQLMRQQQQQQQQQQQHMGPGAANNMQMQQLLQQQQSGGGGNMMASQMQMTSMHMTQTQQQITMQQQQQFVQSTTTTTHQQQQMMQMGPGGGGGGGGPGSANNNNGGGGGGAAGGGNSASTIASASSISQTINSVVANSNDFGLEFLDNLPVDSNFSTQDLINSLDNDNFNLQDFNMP

Columns and labels:
[1] = target: GST-tagged Suppressor of Hairless, Su(H), full length (Drosophila) (UniProt P28159); test: pull-down
[2] = target: SWI-SNF ATPase Brahma (Brm) (Drosophila (endogenous in whole larvae)) (UniProt P25439); test: co-IP

binding [2]	Substance	binding [1]
binds	Drosophila CBP/p300 (Nejire, Nej) (from UniProt Q9W321 1-3276)	
binds	Suppressor of Hairless, Su(H) (from UniProt P28159 1-594)	

The remaining lines, values behind:

Substance	binding [2]	binding [1]
6X His-Brm F1 (1-311aa) (from UniProt P25439 1-311) (domain or fragment)		no binding
His-Brm F2 (304-747aa) (from UniProt P25439 304-747) (domain or fragment)		binds
His-Brm F3 (748-1638aa) (from UniProt P25439 748-1638) (domain or fragment)		no binding
Mastermind (Mam) (from UniProt P21519 1-1594)	binds	
